Assay results taken from paper PMC12670160, “A drug-repurposing screen of FDA- and EMA-approved drugs identifies two NF-κB inhibitors active against eumycetoma” (Journal of Antimicrobial Chemotherapy, 2025).
Counter-ions that a name gives are not always drawn. Among all 5,300 compounds or so, about 130 (2.5%) showed an effect of 50% or more. The list shows a part of the results.

These compounds were tested on M. mycetomatis strain mm55. Details: primary screen, metabolic activity vs growth control; 96 h, 2 µM; inhibitor.

Compound	% viability
Cc1ccc(C(=O)Nc2ccc(S(=O)(=O)O)c3cc(S(=O)(=O)O)cc(S(=O)(=O)O)c23)cc1NC(=O)c1cccc(NC(=O)Nc2cccc(C(=O)Nc3cc(C(=O)Nc4ccc(S(=O)(=O)O)c5cc(S(=O)(=O)O)cc(S(=O)(=O)O)c45)ccc3C)c2)c1 [ONC0000538, suramin hexasodium]	88.85%
NC(=O)c1ncn([C@@H]2O[C@H](CO)[C@@H](O)[C@H]2O)c1O [ONC0005206, mizoribine bredinin]	136.6%
COc1cc([C@@H]2c3cc4c(cc3[C@@H](O[C@@H]3O[C@@H]5CO[C@@H](C)O[C@H]5[C@H](O)[C@H]3O)[C@H]3COC(=O)[C@H]23)OCO4)cc(OC)c1OP(=O)(O)O [ONC0003311, etoposide phosphate]	77.62%
Cc1cn([C@@H]2C[C@@H](O)[C@H](CO)O2)c(=O)[nH]c1=O [ONC0004416, telbivudine sebivo tyzeka]	98.41%
CN(Cc1ccccc1)C(=O)[C@H](Cc1ccc2ccccc2c1)NC(=O)[C@@H]1C[C@@H](O)CN1C(=O)c1cn(C)c2ccccc12 [ONC0001318, fk888]	95.71%
CN(C)C(=S)SSC(=S)N(C)C [ONC0003134, thiram]	114.3%
CC(C)(C)NCC(O)CSc1nc(-c2ccc(C(N)=O)s2)cs1 (stereo not drawn) [ONC0003287, arotinolol]	80.62%
Cc1cccc(Nc2cc(Cl)nc(SCC(=O)O)n2)c1C [ONC0001441, pirinixicacid]	85.94%
CCOc1cc2ncc(C#N)c(Nc3ccc(OCc4ccccn4)c(Cl)c3)c2cc1NC(=O)/C=C/CN(C)C [ONC0004941, neratinib hki272]	60.08%
O=C(N/N=C/c1ccc([N+](=O)[O-])o1)c1ccc(O)cc1 [ONC0005360, nifuroxazide]	75%
CN1CCN(C(c2ccccc2)c2ccc(Cl)cc2)CC1 (stereo not drawn) [ONC0003461, chlorcyclizine hydrochloride]	53.59%
C[C@@H]1CN(c2c(F)c(N)c3c(=O)c(C(=O)O)cn(C4CC4)c3c2F)C[C@H](C)N1 [ONC0004146, sparfloxacin]	88.73%
O=C(O)c1cc(Oc2ccc([N+](=O)[O-])cc2)cc(Oc2ccc([N+](=O)[O-])cc2)c1 [ONC0001385, compoundw]	134.4%
CC12CCC(C(Br)C1=O)C2(C)C (stereo not drawn) [ONC0003727, 3bromocamphor]	127.8%
Cc1c(F)cccc1NC(=O)Nc1ccc(Cl)c(S(=O)(=O)[C@H]2CCCNC2)c1O [ONC0001291, danirixin]	52.88%
C[C@@H]1O[C@@H]1P(=O)(O)O [ONC0000648, fosfomycin calcium]	118.9%
O=c1n(CC2CO2)c(=O)n(CC2CO2)c(=O)n1CC1CO1 (stereo not drawn) [ONC0002836, triglycidyl isocyanurate]	92.06%
COc1cc(N)cn[n+]1-c1ccccc1 [ONC0002799, amezinium methyl sulfate]	109%
CC(C)(O)c1ccn2c(-c3ccc(F)c(-c4ccc(F)cc4C#N)c3)cnc2c1F [ONC0001920, tp003]	78.09%
CCOC(=O)c1c(C)[nH]c2ccc3c(c12)CN1CCc2cc(OC)ccc2C1O3 (stereo not drawn) [ONC0001638, pd102807]	90.28%

In the list so far, these contain a nitro group on carbon:
Compound	% viability
O=C(N/N=C/c1ccc([N+](=O)[O-])o1)c1ccc(O)cc1 [ONC0005360, nifuroxazide]	75%
O=C(O)c1cc(Oc2ccc([N+](=O)[O-])cc2)cc(Oc2ccc([N+](=O)[O-])cc2)c1 [ONC0001385, compoundw]	134.4%

The list goes on:

Compound	% viability
Cc1nnc2ccc(-c3cccc(C(F)(F)F)c3)nn12 [ONC0002575, cl218872]	65.35%
FC(F)(F)c1cc(CO[C@H]2CCCN[C@H]2c2ccccc2)cc(C(F)(F)F)c1 [ONC0001523, l733060]	91.91%
O=[N+]([O-])c1cc(Cl)ccc1S(=O)(=O)c1ccccc1 [ONC0003098, btb1]	84.2%
Cc1ccc(S(=O)(=O)NCl)cc1 [ONC0003893, chloraminet]	82.8%
CC#CCOC(=O)c1c(C)nc2sc3c(c2c1N)CCC(O)C3 (stereo not drawn) [ONC0001446, sb205384]	87.2%
C#C[C@]1(O)C=C[C@H]2[C@@H]3CCC4=CC(=O)CC[C@@H]4[C@H]3CC[C@@]21CC [ONC0004807, gestodene]	85.89%
N#CN=C(NCCCCCCOc1ccc(Cl)cc1)Nc1ccncc1 [ONC0001039, chs828]	89.53%
CCOC(=O)C1CN(Cc2ccccc2)C(=O)C1=O (stereo not drawn) [ONC0000018, ebpc]	104.8%
CCCCCCCCCCC(C)(C)C(=O)Nc1c(OC)cc(OC)cc1OC [ONC0004485, ci976]	111.3%
CCn1c(=O)[nH]c2ccccc21 [ONC0002686, 1ebio]	68.57%
CCC1=C[C@@H]2CN(C1)Cc1c([nH]c3ccccc13)[C@@](C(=O)OC)(c1cc3c(cc1OC)N(C)[C@H]1[C@@](O)(C(=O)OC)[C@H](OC(C)=O)[C@]4(CC)C=CCN5CC[C@]31[C@@H]54)C2 [ONC0001957, vinorelbine ditartrate]	90.72%
O=C(O)C1=CCNCC1 [ONC0002998, isoguvacine]	69.52%
CS(=O)(=O)Nc1ccc([N+](=O)[O-])cc1Oc1ccccc1 [ONC0002874, nimesulide]	89.15%
COc1cc(C)nc(-n2nc(C)cc2OC)n1 [ONC0002327, epirizole]	79.36%
CCn1cc(C(=O)O)c(=O)c2cc(F)c(N3CCNC(C)C3)c(F)c21 (stereo not drawn) [ONC0000681, lomefloxacin hydrochloride]	124.2%
C[C@H](N)C(=O)O [ONC0002657, lalanine]	104.9%
N[C@@H](CN1C=CC(=O)C(=O)C1)C(=O)O [ONC0002117, lmimosine]	76.12%
C=CC(=O)Nc1cccc(Nc2nc(Nc3ccc(NC4CN(CCF)C4)cc3OC)ncc2C(F)(F)F)c1 [ONC0000789, cnx2006]	96.85%
c1ccc2c(Oc3nc(Nc4ccc(N5CCOCC5)cc4)c4ncn(C5CCCCC5)c4n3)cccc2c1 [ONC0004354, purmorphamine]	98.51%
